Data on nine molecules can be found in paper doi:10.1101/2022.03.17.484690.

Positions count from the first letter of the chain named. Names and notes keep the numbering of the source. These are yes or no findings as the source states them, for the method shown. For part of these data: Binding seen in cells or lysates may run through a third protein. Some entries that bind do so weakly or less than the wild type. For part of these data: Sequences can lack the tags named with a protein.

The target in assay [1] is T1, DUF581-9-myc (Arabidopsis thaliana) (UniProt O80506).
T1 sequence: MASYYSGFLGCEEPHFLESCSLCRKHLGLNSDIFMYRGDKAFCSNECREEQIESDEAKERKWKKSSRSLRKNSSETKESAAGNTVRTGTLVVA
The experiment in a line: co-IP.

Assay [2] concerns the target T2, DUF581-9 fused to the GAL4 DNA binding domain (BD) (Arabidopsis thaliana) (UniProt O80506).
T2 sequence: T1 sequence
The experiment in a line: two-hybrid.

The target in assay [3] is T3, GST-KIN10 (Arabidopsis thaliana) (UniProt Q38997).
T3 sequence: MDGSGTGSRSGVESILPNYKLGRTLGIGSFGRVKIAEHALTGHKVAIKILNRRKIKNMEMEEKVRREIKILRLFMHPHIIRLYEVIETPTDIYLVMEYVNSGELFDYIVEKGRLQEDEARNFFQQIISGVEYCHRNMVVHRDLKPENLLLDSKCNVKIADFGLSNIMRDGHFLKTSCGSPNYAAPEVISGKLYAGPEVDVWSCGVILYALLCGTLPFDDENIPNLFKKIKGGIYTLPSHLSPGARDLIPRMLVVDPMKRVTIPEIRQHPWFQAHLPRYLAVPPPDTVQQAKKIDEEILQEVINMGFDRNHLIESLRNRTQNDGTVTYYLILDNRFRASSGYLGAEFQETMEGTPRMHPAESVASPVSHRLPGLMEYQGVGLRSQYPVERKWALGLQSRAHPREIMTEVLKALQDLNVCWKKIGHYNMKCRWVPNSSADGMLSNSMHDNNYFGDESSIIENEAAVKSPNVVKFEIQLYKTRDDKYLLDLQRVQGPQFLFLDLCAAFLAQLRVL
In words: pull-down.

The target of assay [4] is T4, KIN10-Venus^N173 (Arabidopsis thaliana) (UniProt Q38997).
T4 sequence: T3 sequence
In words: split reporter.

The target in assay [5] is T5, GRIK2 (yeast two-hybrid fusion) (Arabidopsis thaliana) (UniProt Q5HZ38).
T5 sequence: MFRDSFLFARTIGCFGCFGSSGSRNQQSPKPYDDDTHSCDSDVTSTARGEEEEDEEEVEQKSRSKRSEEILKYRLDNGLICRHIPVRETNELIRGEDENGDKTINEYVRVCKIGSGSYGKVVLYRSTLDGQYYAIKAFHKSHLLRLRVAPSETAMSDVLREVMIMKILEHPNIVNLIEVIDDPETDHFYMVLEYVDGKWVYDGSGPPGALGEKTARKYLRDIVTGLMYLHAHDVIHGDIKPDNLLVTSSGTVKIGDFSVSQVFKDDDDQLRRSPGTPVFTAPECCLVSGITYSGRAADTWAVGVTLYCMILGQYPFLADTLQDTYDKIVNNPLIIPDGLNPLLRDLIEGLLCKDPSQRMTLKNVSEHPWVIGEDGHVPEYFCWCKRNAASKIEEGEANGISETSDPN
In words: two-hybrid.

Assay [6] concerns the target T6, GST-KIN10 (Arabidopsis thaliana), Q38997.
T6 chain: T3 sequence
In words: pull-down. The settings on record: remark: other sources report otherwise.

Assay [7] has as its target Cytosolic FBPase (FBPase-Venus^N173 and FBPase-Venus^C155) (Arabidopsis thaliana) (UniProt Q9MA79). In words: split reporter.

B1: KIN10 (protein, UniProt Q38997 1-512)
chain: T3 sequence
As for B1, the binding entry in assay [1] is listed as “binds”.

B2: KIN10 fused to the GAL4 activation domain (AD) (protein, UniProt Q38997 1-512)
chain: T3 sequence
Turning to B2, the binding entry in assay [2] is listed as “binds”.

B3: MBP-GRIK2 (protein, UniProt Q5HZ38 1-407)
chain: T5 sequence
In the case of B3, the binding result in assay [3] was “binds”.

B4: GRIK2-Venus^C155 (protein, UniProt Q5HZ38 1-407)
chain: T5 sequence
Consider B4, for which the binding result in assay [4] is listed as “binds”.

B5: MBP-DUF581-9 (protein, UniProt O80506 1-93)
chain: T1 sequence
Take B5: the binding result in assay [3] is “binds”.

B6: DUF581-9-mCherry (protein, UniProt O80506 1-93)
chain: T1 sequence
In the case of B6, in assay [4], the binding result was “binds”.

B7: DUF581-9 fused to the GAL4 activation domain (AD) (protein, UniProt O80506 1-93)
chain: T1 sequence
B7: in assay [5], the binding entry was “no binding”.

B8: MBP-DUF581-9_(C47S), O80506 1-93 (protein)
chain: T1 sequence with C47S
Turning to B8, in assay [6], the binding result was “binds”.

B9: Cytosolic FBPase (FBPase-Venus^N173 and FBPase-Venus^C155) (enzyme, UniProt Q9MA79 1-341)
chain: MDHAADAHRTDLMTITRFVLNEQSKYPESRGDFTILLSHIVLGCKFVCSAVNKAGLAKLIGLAGETNIQGEEQKKLDVLSNDVFVNALVSSGRTSVLVSEEDEEATFVEPSKRGKYCVVFDPLDGSSNIDCGVSIGTIFGIYTLDHTDEPTTADVLKPGNEMVAAGYCMYGSSCMLVLSTGTGVHGFTLDPSLGEFILTHPDIKIPNKGNIYSVNEGNAQNWDGPTTKYVEKCKFPKDGSPAKSLRYVGSMVADVHRTLLYGGIFLYPADKKSPNGKLRVLYEVFPMSFLMEQAGGQAFTGKKRALDLVPEKIHERSPIFLGSYDDVEEIKALYAEEEKKN
B9: the binding result in assay [7] was “binds”.
